Measurements: patent US20130225436A1

Sequences of proteins named here, by UniProt entry; tags and fusion partners are left off. A change or cut given only in a name is not applied to a line headed by its entry.
UniProt P45974: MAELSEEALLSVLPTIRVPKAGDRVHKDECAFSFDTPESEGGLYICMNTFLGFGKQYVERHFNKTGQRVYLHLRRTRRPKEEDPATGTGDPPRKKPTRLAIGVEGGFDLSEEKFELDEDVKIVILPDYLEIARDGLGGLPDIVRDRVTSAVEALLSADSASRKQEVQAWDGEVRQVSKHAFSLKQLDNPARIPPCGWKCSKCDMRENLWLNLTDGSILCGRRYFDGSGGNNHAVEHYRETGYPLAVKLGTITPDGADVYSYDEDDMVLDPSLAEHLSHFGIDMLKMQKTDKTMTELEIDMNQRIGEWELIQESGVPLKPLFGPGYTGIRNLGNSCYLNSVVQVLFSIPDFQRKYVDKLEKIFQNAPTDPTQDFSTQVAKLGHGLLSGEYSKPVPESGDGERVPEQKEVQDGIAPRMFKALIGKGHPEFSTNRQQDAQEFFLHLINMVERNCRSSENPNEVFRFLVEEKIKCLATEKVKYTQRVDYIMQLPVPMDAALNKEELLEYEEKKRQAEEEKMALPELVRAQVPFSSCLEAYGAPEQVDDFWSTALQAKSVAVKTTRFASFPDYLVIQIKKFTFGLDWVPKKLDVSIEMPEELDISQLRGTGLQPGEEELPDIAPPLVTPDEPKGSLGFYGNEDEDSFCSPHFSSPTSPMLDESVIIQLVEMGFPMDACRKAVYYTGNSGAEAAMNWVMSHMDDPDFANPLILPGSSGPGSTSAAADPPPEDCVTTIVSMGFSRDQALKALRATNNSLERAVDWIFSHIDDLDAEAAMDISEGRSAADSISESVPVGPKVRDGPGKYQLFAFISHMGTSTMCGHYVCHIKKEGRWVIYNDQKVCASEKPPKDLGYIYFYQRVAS

B1: USP5-E4 (designed binder)
chain: MEIYVNTRLLETINLEVEPSDTIENVKAKIQDKEGIPPDQQRLIFAGKQLEDGRTLSDYNIQKKSTLYLVLRLLGQRH
B2: USP5-F11 (designed binder)
chain: MQIFVQTRVMNTITLEVEPSDTIENVKAKIQDKEGIPPDQQRLIFATKQLEDGRTLSDYNIHKDSTLHLLLRMRRLNK
B3: USP5-F3 (designed binder)
chain: MQIFVQTRAMWTITLEVEPSDTIENVKAKIQDKEGIPPDQQRLIFAGKQLEDGRTLSDYNIPKESTLHLVLRLRGGGG
B4: USP5-F8 (designed binder)
chain: MRIFVKTRMMESIFLEVEPSDTIENVKAKIQDKEGIPPDQQRLIFAGQQLEDGRTLSDYNIQKESTLHLVVRFRSARR
B5: USP5-F9 (designed binder)
chain: MPIFVNTRWMKTIPLEVEPSDTIENVKAKIQDKEGIPPDQQRLIFDRKQLEDGRTLSDYNIQKESTLHLVLRDLGVFC
B6: USP5-G11 (designed binder)
chain: B3 chain with F4S, Q6N, A9M, W11E, T12S, P62L, K63P
B7: USP5-G8 (designed binder)
chain: B3 chain with F4I, Q6R, T14A, P62R, K63T
B8: USP5-H11 (designed binder)
chain: B3 chain with F4V, Q6N, A9S, W11N, T14H, P62Q, E64R, H68Y
B9: USP5-H12 (designed binder)
chain: B3 chain with Q2R, F4V, Q6N, A9Y, W11N, T14S, R42T, P62H
B10: USP5-H4 (designed binder)
chain: MQIFVNTRLMYSITLEVEPSDTIENVKAKIQDKEGIPPDQQRLIFAGKQLEDGRTLSDYNIQKESTLHLVLRISRGLP
B11: USP5-H7 (designed binder)
chain: B3 chain with F4L, Q6R, A9I, W11E, K48N, P62Q
B12: USP5-H8 (designed binder)
chain: B3 chain with Q6N, A9M, W11E, T14A, R42S, Q49R, P62Q, E64S

target: USP5 (residues 1-835) (UniProt P45974); experiment: phage ELISA after 5 rounds of selection

binding, binds:
B1
B2
B3
B4
B5
B6
B7
B8
B9
B10
B11
B12

Positions count from the first letter of the chain named. Results are given in words; binding and its absence hold for the method and conditions named. Binding can be weak; no strength is given.
